Measured data: PubChem BioAssay AID504786 (Drosophila RNAi Screening Center, 2011)
The screen tested about 21,000 reagents; this is an unselected part of those with a known target gene and a result. 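Primary screen; positive scores mean lost reporter signal, so the sign may be inverted from the usual convention.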 A plus sign joins genes that one reagent is predicted to hit. Further read-outs or replicates are left out here. No sequences are given here.

Screen: 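Knock-downs reducing HIF reporter induction by the iron chelator DFO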 (primary screen)
Cells: Drosophila S2 cells with a stable HIF luciferase reporter
Reagents: long dsRNA against Drosophila genes, about 0.2 µg dsRNA per well of a 384-well plate
Timing: three days of knock-down, then 20 h of DFO before reading
Challenge: desferrioxamine (DFO) at 100 µM, an iron chelator that mimics hypoxia, for 20 h
Measured: 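Firefly luciferase driven by the mouse ldh-a hypoxia-response element, measured after 20 h of 100 µM DFO; z-scores per plate, higher means more signal lost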
Reading the numbers: z-score: higher = stronger loss of HIF reporter signal

The first 4 records, to show the layout:
Cpr47Ee [DRSC06343] | z-score, replicate 1: 2.6
Aos1 [DRSC14113] | z-score, replicate 1: -0.6
Alp1 [DRSC11781] | z-score, replicate 1: -0.1
Ace [DRSC12959] | z-score, replicate 1: -0.2

The list itself, repeating the preview:
Cpr47Ee [DRSC06343] | z-score, replicate 1: 2.6
Aos1 [DRSC14113] | z-score, replicate 1: -0.6
Alp1 [DRSC11781] | z-score, replicate 1: -0.1
Ace [DRSC12959] | z-score, replicate 1: -0.2
Ace [DRSC14100] | z-score, replicate 1: -0.2
IP3K2 [DRSC19500] | z-score, replicate 1: -0.1
IP3K2 [DRSC19747] | z-score, replicate 1: -0.2
CG6012 [DRSC02921] | z-score, replicate 1: 0
Spn [DRSC07986] | z-score, replicate 1: -0.3
Spn [DRSC08490] | z-score, replicate 1: -0.3
Spn [DRSC08491] | z-score, replicate 1: 0.6
Or22a [DRSC00764] | z-score, replicate 1: 0.1
CG8788 [DRSC07267] | z-score, replicate 1: -0.3
alphaSnap [DRSC11285] | z-score, replicate 1: -0.4
TwdlU [DRSC12224] | z-score, replicate 1: 0
CG11360 [DRSC17124] | z-score, replicate 1: 0
CG11360 [DRSC17134] | z-score, replicate 1: -0.3
CG34024 (retired record) [DRSC13734] | z-score, replicate 1: -0.3
CG32191 [DRSC10522] | z-score, replicate 1: 0
fd96Ca [DRSC16946] | z-score, replicate 1: -0.1
CG13361 [DRSC17896] | z-score, replicate 1: -0.4
CG13599 [DRSC14602] | z-score, replicate 1: -0.2
knon [DRSC07049] | z-score, replicate 1: -0.3
robl62A [DRSC08153] | z-score, replicate 1: -0.3
AANATL7 [DRSC18616] | z-score, replicate 1: -0.2
CG32599 [DRSC19433] | z-score, replicate 1: -0.2
CG33269 [DRSC10585] | z-score, replicate 1: -0.4
Vps36 [DRSC09785] | z-score, replicate 1: -0.1
Obp46a [DRSC06220] | z-score, replicate 1: -0.2
Brf [DRSC13228] | z-score, replicate 1: -0.4
Brf [DRSC14166] | z-score, replicate 1: 0.2
Brf [DRSC14167] | z-score, replicate 1: -0.2
Rox8 [DRSC16829] | z-score, replicate 1: -0.2
CG33502 + CG32857 + CG32500 [DRSC20817] | z-score, replicate 1: -0.2
CG33502 + CG32857 + CG32500 [DRSC21038] | z-score, replicate 1: -0.2
Eig71Ee [DRSC11152] | z-score, replicate 1: -0.1
DptA [DRSC07404] | z-score, replicate 1: -0.1
TwdlF [DRSC12225] | z-score, replicate 1: -0.3
CG32212 + hpRNA:CR33940 [DRSC09618] | z-score, replicate 1: 0.4
Prosbeta2R2 [DRSC12193] | z-score, replicate 1: -0.3
Dd [DRSC20539] | z-score, replicate 1: -0.2
Or46a [DRSC07489] | z-score, replicate 1: -0.3
Or46a [DRSC07490] | z-score, replicate 1: -0.3
CG11498 [DRSC14315] | z-score, replicate 1: -0.4
CG9547 [DRSC03260] | z-score, replicate 1: -0.2
Ggt-1 [DRSC19993] | z-score, replicate 1: -0.3
sut3 [DRSC07702] | z-score, replicate 1: 0
hh [DRSC16965] | z-score, replicate 1: -0.4
Rcd6 [DRSC06054] | z-score, replicate 1: -0.2
Cpr65Ay [DRSC08796] | z-score, replicate 1: -0.1
Or59c [DRSC04633] | z-score, replicate 1: -0.2
